Experimental data from patent US20050176784A1, “Malononitrile compounds and their use as pesticides” (priority 2002, published 2005).
Some of these results come from one statement about several compounds together.

Tests used:
Nilaparvata lugens = assay: Test Example 1: spray on rice plants, Nilaparvata lugens larvae; assay type: in vivo; settings: 500 ppm active ingredient, 20 ml/cup sprayed on rice plants, thirty first-instar larvae, sixth day after release
Aphis gossypii = assay: Test Example 2: spray on cucumber plant, Aphis gossypii; assay type: in vivo; settings: 500 ppm active ingredient, 20 ml/cup sprayed on cucumber plant with about twenty Aphis gossypii, sixth day after application

SMILES	number of parasitic Nilaparvata lugens (Nilaparvata lugens)	number of parasitic Nilaparvata lugens on the sixth day after the treatment (Aphis gossypii)
N#Cc1ccc(CC(C#N)(C#N)CCC(F)(F)F)cn1 [Compound 12, 2-((6-cyano-3-pyridyl)methyl)-2-(3,3,3-trifluoropropyl)malononitrile]	≤ 3	≤ 3
N#CC(C#N)(CCC(F)=C(F)F)Cc1ccc(Cl)nc1 [Compound 3, 2-((6-Chloro-3-pyridyl)methyl)-2-(3,4,4-trifluoro-3-butenyl)malononitrile]	≤ 3	
C#Cc1ccc(CC(C#N)(C#N)CCC(F)(F)F)cn1 [Compound 11, 2-((6-ethynyl-3-pyridyl)methyl)-2-(3,3,3-trifluoropropyl)malononitrile]	≤ 3	≤ 3
N#CC(C#N)(CCC(F)(F)F)Cc1ccc(Br)nc1 [Compound 10, 2-((6-bromo-3-pyridyl)methyl)-2-(3,3,3-trifluoropropyl)malononitrile]	≤ 3	≤ 3
N#CC(C#N)(CCC(F)(F)F)Cc1cccc(Cl)n1 [Compound 8, 2-((6-chloro-2-pyridyl)methyl)-2-(3,3,3-trifluoropropyl)malononitrile]	≤ 3	≤ 3
N#CC(C#N)(CCC(F)(F)F)Cc1cnc(Cl)c(Cl)c1 [Compound 15, 2-((5,6-dichloro-3-pyridyl)methyl)-2-(3,3,3-trifluoropropyl)malononitrile]	≤ 3	
N#CC(C#N)(CCC(F)(F)F)Cc1ccncc1 [Compound 7, 2-(4-pyridylmethyl)-2-(3,3,3-trifluoropropyl)malononitrile]	≤ 3	
N#CC(C#N)(CCC(F)(F)F)Cc1ccc(C(F)(F)F)nc1 [Compound 9, 2-((6-(trifluoromethyl)-3-pyridyl)methyl)-2-(3,3,3-trifluoropropyl)malononitrile]	≤ 3	≤ 3
N#CC(C#N)(CCC(F)(F)F)Cc1ccccn1 [Compound 5, 2-((2-pyridyl)methyl)-2-(3,3,3-trifluoropropyl)malononitrile]	≤ 3	
N#CC(C#N)(CCC(F)(F)F)Cc1ccc(F)nc1 [Compound 13, 2-((6-fluoro-3-pyridyl)methyl)-2-(3,3,3-trifluoropropyl)malononitrile]	≤ 3	≤ 3
N#CC(C#N)(CCC(F)(F)F)Cc1cccc(Br)n1 [Compound 14, 2-((6-bromo-2-pyridyl)methyl)-2-(3,3,3-trifluoropropyl)malononitrile]	≤ 3	
N#CC(C#N)(CCC(F)(F)F)Cc1ccc(Cl)nc1 [Compound 4, 2-((6-Chloro-3-pyridyl)methyl)-2-(3,3,3-trifluoropropyl)malononitrile]	≤ 3	≤ 3
